This is an account of results in PMC10850913, “D-α-tocopheryl polyethylene glycol 1000 succinate surface scaffold polysarcosine based polymeric nanoparticles of enzalutamide for the treatment of colorectal cancer: In vitro, in vivo characterizations” (Heliyon, 2024).

A word on the pIC50: it is −log10 of the IC50, conventionally taken in molar units. Read a low pIC50 as a high IC50.

SMILES strings stand for the structures. pIC50: −log10 of the molar value.

The subject of this experiment is HCT116 cell line. Put plainly: Sulforhodamine B (SRB) cytotoxicity assay. Format: cell-based. The note with it: Homo sapiens; HCT 116 cell line, 24-h incubation. Here is the method: Assessment of cytotoxicity for the given samples on the HCT116 cell line was conducted using the SRB Assay. This involved cultivating cells quantity of (8000 cells/well) in 96-well plate for 24 h in DMEM medium which was continuously nourished with solution of 1 % antibiotic solution at 37 °C and 10 % FBS and 5 % CO2. These cells were treated in varied different concentrations dosage of 1–2500 μM on next day. Various concentrations were prepared in an incomplete medium. Following a 24-h incubation period, 100 μL of Tri Chloro Acetic Acid (TCA, 10 %) was introduced to each well, and plate was incubated for an additional hour. Subsequently, the plate was washed with DM water and air-dried at room temperature. SRB Solution, with a final concentration of 0.04 %, was applied to each well and allowed to sit for 1 h. After this incubation period, the plate underwent washing with 1 % (v/v) acetic acid to eliminate unbound dye, followed by air-drying at room temperature. Tris base solution (pH = 10.5) was added to each well and shaken on an orbital shaker for 10 min to solubilize the protein-bound dye. The absorbance was measured using an Elisa plate reader (iMark, Biorad, USA) at 510 nm.

The molecule `CNC(=O)c1ccc(N2C(=S)N(c3ccc(C#N)c(C(F)(F)F)c3)C(=O)C2(C)C)cc1F` [ENZ, Enzalutamide] had a pIC50 of 3.87.
